Test results published in patent US20130253011A1, “INSECTICIDAL COMPOUNDS” (SYNGENTA PARTICIPATIONS AG, priority 2010, published 2013).
Some entries share one result that the patent states for a list of compounds.

How the values were obtained:
Format in all cases: in vivo
[1] = test system: Spodoptera littoralis (Egyptian cotton leafworm); experiment: Spodoptera littoralis leaf disc spray test; conditions: 200 ppm sprayed on cotton leaf discs; 5 L1 larvae; mortality, feeding behaviour, growth regulation 3 DAT
[2] = test system: Heliothis virescens (Tobacco budworm); experiment: Heliothis virescens egg test on artificial diet; conditions: 200 ppm (concentration in well 18 pm) by pipetting; eggs 0 to 24 h old on artificial diet; egg mortality, larval mortality, growth regulation after 4 days
[3] = test system: Plutella xylostella (Diamond back moth); experiment: Plutella xylostella larval test on artificial diet; conditions: 200 ppm (concentration in well 18 ppm) on artificial diet; L2 larvae; larval mortality, growth regulation after 6 days
[4] = test system: Diabrotica balteata (Corn root worm); experiment: Diabrotica balteata larval test on artificial diet; conditions: 200 ppm (concentration in well 18 ppm) on artificial diet; L2 larvae; larval mortality, growth regulation after 5 days
[5] = test system: Tetranychus urticae (Two-spotted spider mite); experiment: Tetranychus urticae bean leaf disc spray test; conditions: 200 ppm sprayed on bean leaf discs; mite populations of mixed ages; egg, larval and adult mortality 8 days later
[6] = test system: Thrips tabaci (Onion thrips); experiment: Thrips tabaci sunflower leaf disc spray test; conditions: 200 ppm sprayed on sunflower leaf discs; population of mixed ages; mortality after 7 days
[7] = test system: Myzus persicae (Green peach aphid); experiment: Myzus persicae sunflower leaf disc spray test; conditions: 200 ppm sprayed on sunflower leaf discs; aphid population of mixed ages; mortality after 6 DAT

Cc1cc(C#N)ccc1C(=O)Nc1cccc(-c2cn(-c3c(C(F)(F)F)c(C(F)(F)C(F)(F)F)nn3C)nn2)c1 [Compound A4]
at least 80%: control of Spodoptera littoralis [1] | control of Heliothis virescens [2] | control of Plutella xylostella [3] | control of Diabrotica balteata [4] | control of Tetranychus urticae [5] | control of Thrips tabaci [6]

Cn1nc(C(F)(F)C(F)(F)F)c(C(F)(F)F)c1-n1cc(-c2cccc(NC(=O)C3CC3)c2)nn1 [Compound A5]
at least 80%: control of Spodoptera littoralis [1] | control of Heliothis virescens [2] | control of Plutella xylostella [3] | control of Diabrotica balteata [4] | control of Tetranychus urticae [5] | control of Thrips tabaci [6]

Cn1nc(C(F)(F)C(F)(F)F)c(C(F)(F)F)c1-n1cc(-c2ccc(C#N)c(NC(=O)c3ccccc3)c2)nn1 [Compound A45]
at least 80%: control of Spodoptera littoralis [1] | control of Heliothis virescens [2] | control of Plutella xylostella [3] | control of Diabrotica balteata [4] | control of Tetranychus urticae [5] | control of Thrips tabaci [6]

Cn1nc(C(F)(F)C(F)(F)F)c(C(F)(F)F)c1-n1cc(-c2ccc(C#N)c(NC(=O)c3ccc(F)cc3)c2)nn1 [Compound A46]
at least 80%: control of Spodoptera littoralis [1] | control of Heliothis virescens [2] | control of Plutella xylostella [3] | control of Diabrotica balteata [4] | control of Tetranychus urticae [5] | control of Thrips tabaci [6] | control of Myzus persicae [7]

Cn1nc(C(F)(F)C(F)(F)F)c(C(F)(F)F)c1-n1cc(-c2ccc(C#N)c(NC(=O)c3ccc(F)cc3Cl)c2)nn1 [Compound A48]
at least 80%: control of Spodoptera littoralis [1] | control of Heliothis virescens [2] | control of Plutella xylostella [3] | control of Diabrotica balteata [4] | control of Tetranychus urticae [5] | control of Thrips tabaci [6]

Cc1nnsc1C(=O)Nc1cc(-c2cn(-c3c(C(F)(F)F)c(C(F)(F)C(F)(F)F)nn3C)nn2)ccc1C#N [Compound A49]
at least 80%: control of Spodoptera littoralis [1] | control of Heliothis virescens [2] | control of Plutella xylostella [3] | control of Diabrotica balteata [4] | control of Tetranychus urticae [5] | control of Thrips tabaci [6]

Cn1nc(C(F)(F)C(F)(F)F)c(C(F)(F)F)c1-n1cc(-c2ccc(C#N)c(NC(=O)C3(C)CC(F)(F)C3(F)F)c2)nn1 (stereo not shown) [Compound A80]
at least 80%: control of Spodoptera littoralis [1] | control of Plutella xylostella [3] | control of Diabrotica balteata [4] | control of Tetranychus urticae [5] | control of Thrips tabaci [6]

CCCCC(=O)Nc1cc(-c2cn(-c3c(C(F)(F)F)c(C(F)(F)C(F)(F)F)nn3C)nn2)ccc1C#N [Compound A82]
at least 80%: control of Spodoptera littoralis [1] | control of Heliothis virescens [2] | control of Diabrotica balteata [4] | control of Tetranychus urticae [5] | control of Thrips tabaci [6]

CC(C)C(=O)Nc1cc(-c2cn(-c3c(C(F)(F)F)c(C(F)(F)C(F)(F)F)nn3C)nn2)ccc1C#N [Compound A101]
at least 80%: control of Spodoptera littoralis [1] | control of Heliothis virescens [2] | control of Diabrotica balteata [4] | control of Tetranychus urticae [5] | control of Thrips tabaci [6]

Cc1cc(C#N)ccc1C(=O)Nc1cccc(-c2cn(-c3c(C(F)(F)F)c(C(F)(F)C(F)(F)F)nn3C)nn2)c1F [Compound A126]
at least 80%: control of Spodoptera littoralis [1] | control of Heliothis virescens [2] | control of Plutella xylostella [3] | control of Diabrotica balteata [4] | control of Tetranychus urticae [5] | control of Thrips tabaci [6]

Cn1nc(C(F)(F)C(F)(F)F)c(C(F)(F)F)c1-n1cc(-c2cccc(NC(=O)c3cc[n+]([O-])cc3)c2F)nn1 [Compound A132, N-{2-Fluoro-3-[1-(2-methyl-5-pentafluoroethyl-4-trifluoromethyl-2H-pyrazol-3-yl)-1H-[1,2,3]triazol-4-yl]-phenyl}-1-oxy-isonicotinamide]
at least 80%: control of Spodoptera littoralis [1] | control of Heliothis virescens [2] | control of Plutella xylostella [3] | control of Diabrotica balteata [4] | control of Tetranychus urticae [5] | control of Thrips tabaci [6] | control of Myzus persicae [7]

Cn1nc(C(F)(F)C(F)(F)F)c(C(F)(F)F)c1-n1cc(-c2cccc(NC(=O)c3cncc(Cl)c3)c2F)nn1 [Compound A135]
at least 80%: control of Spodoptera littoralis [1] | control of Heliothis virescens [2] | control of Plutella xylostella [3] | control of Diabrotica balteata [4] | control of Myzus persicae [7]

COc1c(NC(=O)c2ccncc2)cccc1-c1cn(-c2c(C(F)(F)F)c(C(F)(F)C(F)(F)F)nn2C)nn1 [Compound A137]
at least 80%: control of Spodoptera littoralis [1] | control of Heliothis virescens [2] | control of Plutella xylostella [3] | control of Diabrotica balteata [4] | control of Thrips tabaci [6] | control of Myzus persicae [7]

COc1c(NC(=O)c2cc[n+]([O-])cc2)cccc1-c1cn(-c2c(C(F)(F)F)c(C(F)(F)C(F)(F)F)nn2C)nn1 [Compound A143]
at least 80%: control of Spodoptera littoralis [1] | control of Heliothis virescens [2] | control of Plutella xylostella [3] | control of Diabrotica balteata [4] | control of Tetranychus urticae [5] | control of Thrips tabaci [6]

CCN(C(=O)c1ccccc1)c1cccc(-c2cn(-c3c(C(F)(F)F)c(C(F)(F)C(F)(F)F)nn3C)nn2)c1F [Compound B1]
at least 80%: control of Spodoptera littoralis [1] | control of Heliothis virescens [2] | control of Plutella xylostella [3] | control of Diabrotica balteata [4] | control of Thrips tabaci [6] | control of Myzus persicae [7]

CCN(C(=O)c1ccc(F)cc1)c1cccc(-c2cn(-c3c(C(F)(F)F)c(C(F)(F)C(F)(F)F)nn3C)nn2)c1F [Compound B2]
at least 80%: control of Spodoptera littoralis [1] | control of Heliothis virescens [2] | control of Plutella xylostella [3] | control of Diabrotica balteata [4] | control of Thrips tabaci [6] | control of Myzus persicae [7]

CCN(C(=O)c1cccnc1)c1cccc(-c2cn(-c3c(C(F)(F)F)c(C(F)(F)C(F)(F)F)nn3C)nn2)c1F [Compound B3]
at least 80%: control of Spodoptera littoralis [1] | control of Heliothis virescens [2] | control of Plutella xylostella [3] | control of Diabrotica balteata [4] | control of Tetranychus urticae [5] | control of Thrips tabaci [6] | control of Myzus persicae [7]

CCN(C(=O)c1ccncc1)c1cccc(-c2cn(-c3c(C(F)(F)F)c(C(F)(F)C(F)(F)F)nn3C)nn2)c1F [Compound B4]
at least 80%: control of Spodoptera littoralis [1] | control of Heliothis virescens [2] | control of Plutella xylostella [3] | control of Diabrotica balteata [4] | control of Tetranychus urticae [5] | control of Thrips tabaci [6] | control of Myzus persicae [7]

COc1c(-c2cn(-c3c(C(F)(F)F)c(C(F)(F)C(F)(F)F)nn3C)nn2)cccc1N(C)C(=O)c1ccncc1 [Compound B5]
at least 80%: control of Spodoptera littoralis [1] | control of Heliothis virescens [2] | control of Plutella xylostella [3] | control of Diabrotica balteata [4] | control of Tetranychus urticae [5] | control of Thrips tabaci [6] | control of Myzus persicae [7]

COc1c(-c2cn(-c3c(C(F)(F)F)c(C(F)(F)C(F)(F)F)nn3C)nn2)cccc1N(C)C(=O)c1cccnc1 [Compound B6]
at least 80%: control of Spodoptera littoralis [1] | control of Heliothis virescens [2] | control of Plutella xylostella [3] | control of Diabrotica balteata [4] | control of Tetranychus urticae [5] | control of Thrips tabaci [6]

COc1c(-c2cn(-c3c(C(F)(F)F)c(C(F)(F)C(F)(F)F)nn3C)nn2)cccc1N(C)C(=O)c1cc[n+]([O-])cc1 [Compound B9]
at least 80%: control of Spodoptera littoralis [1] | control of Heliothis virescens [2] | control of Plutella xylostella [3] | control of Diabrotica balteata [4] | control of Tetranychus urticae [5] | control of Thrips tabaci [6] | control of Myzus persicae [7]

COc1c(-c2cn(-c3c(C(F)(F)F)c(C(F)(F)C(F)(F)F)nn3C)nn2)cccc1N(C)C(=O)c1ccc[n+]([O-])c1 [Compound B10]
at least 80%: control of Spodoptera littoralis [1] | control of Heliothis virescens [2] | control of Plutella xylostella [3] | control of Tetranychus urticae [5] | control of Myzus persicae [7]
